Experimental data from patent US6919208B2, “Methods and compositions for enhancing the delivery of a nucleic acid to a cell” (The Children's Hospital of Philadelphia, priority 2000, dated 2005).

System: A10 cells
Test: p-EGFP-N3 (GFP) plasmid transfection of A10 cells on native type I collagen with cytochalasin D added after lipofection
Type: cell-based, Rat
Details: 1 nanomolar
Description: A10 cells were grown on native type I collagen. […] Immediately after lipofection, cytochalasin D at a final concentration of 1 nanomolar was either added to cells for thirty minutes, added to cells for an overnight incubation or not added at all (control). The fluorescence of control cells, cells treated with cytochalasin D for thirty minutes, and cells treated with cytochalasin D for an overnight incubation (FIGS. 6A, 6B and 6C, respectively) was assessed. Bright field micrographs were also taken of the control cells, cells treated with cytochalasin D for thirty minutes, and cells treated with cytochalasin D for an overnight incubation (FIGS. 7A, 7B and 7C, respectively).

C=C1[C@@H](C)[C@H]2[C@H](Cc3ccccc3)NC(=O)[C@]23[C@H](OC(C)=O)/C=C/[C@@](C)(O)C(=O)[C@@H](C)C/C=C/[C@H]3[C@@H]1O [cytochalasin D]
cell shape (bright field micrograph) (overnight exposure): more rounded cell shape | cell shape (bright field micrograph) (thirty minute exposure): marked change in cell shape
